# Hit rate of the full screen: of about 340,000 compounds, about 170 (0.05%) were called active. This list was built around the results that the source calls inconclusive (neither active nor inactive); the mix of calls is not that of the screen. Calls follow the shape of the dose curve; as a rule, active = well fitted inhibition curve with a large enough effect in the signal ratio, with a control signal flat (not every such curve was filed as active); inconclusive = small, poorly fitted or top-dose-only effect, or effect the other way, or a change in a side signal; inactive = flat fitted curve, though single readings scatter; the % refers to the signal ratio. Potencies of inconclusive entries are doubtful fits and often do not repeat.
# Assay: qHTS Assay to Find Inhibitors of Chronic Active B-Cell Receptor Signaling;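 as to activity change, negative = inhibition: plate controls were basal doxycycline-induced cells for no effect and cells given 10 µM MG132 for full effect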
# Conditions: ABC-DLBCL IkBa-CBG/CBR reporter, luminescence ratio (green luciferase fused to IkBa over red control in TMD8 lymphoma cells), 4 h; activity change, negative = inhibition: at 46.1 µM (top of the series)
# Method in brief: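 Compounds up to 46 uM were incubated four hours with TMD8 cells whose green CBG68 luciferase is fused to IkappaBalpha; red CBR luminescence normalised the signal, and concentration-effect curves were fitted to fusion, red and ratio data.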
# Potency is read from the fitted curve at half-maximal effect.
Structure (SMILES),Potency,"activity change, negative = inhibition"
Cc1ccc(C)c(NS(=O)(=O)c2ccc(OCC(=O)N3CCCC3)cc2)c1,"inconclusive: 0.103 µM [falling, full curve, poor fit]",–
Cc1cccc2sc(NC(=O)c3ccc(Cl)s3)nc12,"inconclusive: 18.4 µM [falling, partial curve]",–
COc1cccc(OCCn2cc(C=O)c3ccccc32)c1,"inconclusive: 12.6 µM [falling, partial curve, poor fit]",–
COC(=O)c1ccc(Oc2ccc3nnc(C)n3n2)cc1,–,inconclusive: 1.28%
O=C(Nc1ccccc1N1CCOCC1)c1ccc(Br)o1,–,inactive: -0.529%
CN1C(c2ccccc2)CC(=NO)CC1c1ccccc1 (stereo unspecified),–,inconclusive: 3.56%
CC(C)CNC(=O)c1c(N)n(/N=C/c2cccnc2)c2nc3ccccc3nc12,–,inconclusive: 17.3%
COc1ccc(-n2nc3cc(N)c(Br)cc3n2)cc1,–,inconclusive: -0.861%
O=C1NC(Cc2ccccc2)c2nc3cc(F)ccc3c(=O)n2-c2ccc(Cl)cc21 (stereo unspecified),"inconclusive: 18.4 µM [falling, single point]",–
Cc1ccc(NCc2n[nH]c(=S)n2Cc2ccccc2)cc1Cl,–,inactive: 3.07%
COc1cc(OC)c(C2N(C)c3ccccc3N2C)cc1OC,–,inconclusive: 0.695%
CCc1cc(=O)oc2cc(C)cc(O)c12,–,inconclusive: -14.6%
Cn1nnnc1Sc1ncnc2scc(-c3ccccc3Br)c12,–,inconclusive: -8.81%
Cc1ccc(-c2nn3c(C)nnc3s2)cc1NC(=O)c1ccc(OC(C)C)cc1,"inconclusive: 10 µM [falling, partial curve, poor fit]",–
COCCNc1nnnc2c1sc1nc(N3CCOCC3)c3c(c12)CC(C)(C)OC3,"inconclusive: 0.708 µM [falling, full curve, poor fit]",–
CN(Cc1ccccc1)C(=O)COC(=O)c1cc(NS(=O)(=O)c2cccs2)ccc1O,–,inactive: -4.38%
Nc1ncn(CC(=O)c2ccccc2)n1,–,inconclusive: 3.08%
O=C(CCn1c(=O)[nH]c2ccsc2c1=O)Nc1ccc(F)c(F)c1,–,inconclusive: 0.286%
CCOc1ccc(NC(=O)c2ccccc2OCC(=O)c2ccccc2)cc1,"inconclusive: 20.6 µM [falling, partial curve]",–
CCOc1ccc(/C=C/C(=O)Nc2ccc(OC)cc2[N+](=O)[O-])cc1,–,inactive: -0.0287%
Cc1nnc(SCC(=O)N2CC(=O)Nc3ccccc32)n1Cc1ccccc1,–,inactive: 5.22%

# Two entries from above, with bars between the fields.
Structure (SMILES) | Potency | activity change, negative = inhibition
CCc1cc(=O)oc2cc(C)cc(O)c12 | – | inconclusive: -14.6%
Cn1nnnc1Sc1ncnc2scc(-c3ccccc3Br)c12 | – | inconclusive: -8.81%

# The listing continues:

Structure (SMILES),Potency,"activity change, negative = inhibition"
CCn1cc([N+](=O)[O-])c(C(=O)Nc2nc(-c3ccc(C)c(C)c3)c(C)s2)n1,–,inconclusive: -0.551%
COCCN(CCOC)C(=O)N1CCOCC1,–,inconclusive: -8.89%
O=C(O)c1cc(N/N=C/C(Cl)=C/c2ccccc2)ccc1Cl,"inconclusive: 35.5 µM [rising, single point]",–
CCOc1ncccc1C(=O)OCC(=O)Nc1ccc2c(c1)CCC2,–,inconclusive: 1.73%
Cc1ccccc1/C=N/Nc1ccc(Cl)nn1,–,inconclusive: 17.2%
COC(=O)c1sccc1NC(=O)CSc1ccc(Cl)cc1,"inconclusive: 10 µM [falling, partial curve]",–
CCOC(=O)C1=Nc2ccccc2C1=[N+]=[N-],–,inconclusive: -0.563%
C/C=C/c1ccc(OCCn2nnc3ccccc32)c(OC)c1,–,inconclusive: 1.87%
CSCCC(NC(=O)COc1ccccc1)C(=O)N(C)CC(=O)Nc1ccc(Cl)cc1 (stereo unspecified),–,inconclusive: -0.0432%
CCc1cc(-c2n[nH]c(C)c2Oc2ccc(C(C)C)cc2)c(O)cc1O,–,inconclusive: 23.8%
Cc1ccc(C)c(N2CCN(C(=O)CCC(=O)N3CCOc4ccc(Cl)cc43)CC2)c1,–,inconclusive: -0.592%
CC(=O)c1ccc(NC(=S)N2CCN(c3cccc(Cl)c3)CC2)cc1,–,inactive: 5.11%
CCOc1cccc(C(=O)Nc2cnn(Cc3ccccc3)c2)c1,"inconclusive: 7.94 µM [falling, partial curve, poor fit]",–
C/C(=N\NC1=NCCN1)c1ccccc1,–,inactive: -1.75%
CN(C)/C=N/c1ncc(C(=O)c2ccc(Cl)cc2)s1,–,inconclusive: -12%
COc1ccccc1NC(=O)c1cnc(SCC(=O)N2CCOCC2)n(C)c1=O,"inconclusive: 1.41 µM [falling, full curve, poor fit]",–
O=C(NNC(=O)c1ccc([N+](=O)[O-])cc1)c1ccc(Br)cc1,–,inactive: -0.046%
CCOc1ccc(C(=O)NC(=S)Nc2ccccc2N2CCOCC2)cc1Br,–,inactive: 4.52%
CCCCCCCCOC(=O)CCc1c(C)[nH]c(=S)[nH]c1=O,–,inactive: 9.4%
COc1ccc(CC(=O)Nc2cccc(C(=O)Nc3ccccc3C(=O)O)c2)cc1OC,"inconclusive: 18.4 µM [falling, partial curve]",–

# Reference: PubChem BioAssay AID493014 (National Center for Advancing Translational Sciences (NCATS), 2011)
